Measured values as given in publication doi:10.1101/2025.04.07.647567 (bioRxiv, 2025).
Results are given in words; binding and its absence hold for the method and conditions named. Binding seen in cells or lysates may run through a third protein. Some results given as binding are weak or reduced against the parent protein; the word gives no strength.

Sequences of proteins named here, by UniProt entry; tags and fusion partners are left off. Residues count along the entry.
UniProt P30530, residues 26-894: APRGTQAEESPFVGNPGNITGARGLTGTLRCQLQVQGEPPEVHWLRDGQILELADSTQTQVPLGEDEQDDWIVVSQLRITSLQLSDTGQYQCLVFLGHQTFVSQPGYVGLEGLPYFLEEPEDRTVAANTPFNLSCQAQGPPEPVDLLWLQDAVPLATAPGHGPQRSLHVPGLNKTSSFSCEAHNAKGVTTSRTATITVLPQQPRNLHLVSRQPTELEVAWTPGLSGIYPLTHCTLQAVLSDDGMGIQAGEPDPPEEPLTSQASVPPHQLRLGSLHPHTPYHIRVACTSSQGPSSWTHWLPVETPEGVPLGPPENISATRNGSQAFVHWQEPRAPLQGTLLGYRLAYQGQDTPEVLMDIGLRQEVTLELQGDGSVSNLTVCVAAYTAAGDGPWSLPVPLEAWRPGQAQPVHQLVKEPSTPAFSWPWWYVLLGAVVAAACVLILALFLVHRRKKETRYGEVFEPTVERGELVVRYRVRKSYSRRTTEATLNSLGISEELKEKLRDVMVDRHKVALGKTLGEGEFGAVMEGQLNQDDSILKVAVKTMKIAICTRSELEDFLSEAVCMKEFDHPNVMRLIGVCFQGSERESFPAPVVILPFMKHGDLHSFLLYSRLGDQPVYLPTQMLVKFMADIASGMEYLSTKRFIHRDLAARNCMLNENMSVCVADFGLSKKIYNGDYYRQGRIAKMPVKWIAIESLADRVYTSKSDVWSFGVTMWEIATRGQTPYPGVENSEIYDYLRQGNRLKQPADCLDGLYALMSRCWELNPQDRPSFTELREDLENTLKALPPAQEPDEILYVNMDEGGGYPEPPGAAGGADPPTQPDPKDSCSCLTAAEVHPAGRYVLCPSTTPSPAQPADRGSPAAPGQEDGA

Biological target: AXL in human lung tissue (human (endogenous in human lung tissue)) (UniProt P30530)
Test: FRET or BRET

- binding: binds
B1: PROS1 in human lung tissue (ligand, UniProt P07225 42-676)
chain: ANSLLEETKQGNLERECIEELCNKEEAREVFENDPETDYFYPKYLVCLRSFQTGLFTAARQSTNAYPDLRSCVNAIPDQCSPLPCNEDGYMSCKDGKASFTCTCKPGWQGEKCEFDINECKDPSNINGGCSQICDNTPGSYHCSCKNGFVMLSNKKDCKDVDECSLKPSICGTAVCKNIPGDFECECPEGYRYNLKSKSCEDIDECSENMCAQLCVNYPGGYTCYCDGKKGFKLAQDQKSCEVVSVCLPLNLDTKYELLYLAEQFAGVVLYLKFRLPEISRFSAEFDFRTYDSEGVILYAESIDHSAWLLIALRGGKIEVQLKNEHTSKITTGGDVINNGLWNMVSVEELEHSISIKIAKEAVMDINKPGPLFKPENGLLETKVYFAGFPRKVESELIKPINPRLDGCIRSWNLMKQGASGIKEIIQEKQNKHCLVTVEKGSYYPGSGIAQFHIDYNNVSSAEGWHVNVTLNIRPSTGTGVMLALVSGNNTVPFAVSLVDSTSEKSQDILLSVENTVIYRIQALSLCSDQQSHLEFRVNRNNLELSTPLKIETISHEDLQRQLAVLDKAMKAKVATYLGGLPDVPFSATPVNAFYNGCMEVNINGVQLDLDEAISKHNDIRAHSCPSVWKKTKNS
